This note sets out measurements from US9284543B2, “Neutral active soluble truncated PH20 polypeptides and uses thereof” (Halozyme, Inc., priority 2008, dated 2016).

The data set is described as follows: C-terminal sequencing after endoproteinase Asp-N digestion. Particulars: Asp-N digest.
Setting [1] is: Lot HUA0505MA (3D35M cells, 100 L).
The mark [2] stands for this setting: Lot HUB0701EB (2B2 cells, 300 L).

Turning to “D28a (DAFKLPPMETEEPQIFY; C-terminal peptide cleaved from rHuPH20 aa 431-447; listed as Homo sapiens)”, the “Abundance of C-terminal fragment” value is, setting by setting: under setting [1], 0.2%; under setting [2], 1.9%.

“D28b (DAFKLPPMETEEPQIF; C-terminal peptide cleaved from rHuPH20 aa 431-446; listed as Homo sapiens)”: the “Abundance of C-terminal fragment” value reads like this: under setting [1], 18.4%; under setting [2], 46.7%.

As to “D28c (DAFKLPPMETEEPQI; C-terminal peptide cleaved from rHuPH20 aa 431-445; listed as Homo sapiens)”, the “Abundance of C-terminal fragment” value by setting is: under setting [1], 11.8%; under setting [2], 16.7%.

On to “D28d (DAFKLPPMETEEPQ; C-terminal peptide cleaved from rHuPH20 aa 431-444; listed as Homo sapiens)”, for which the “Abundance of C-terminal fragment” value was 56.1% under setting [1] and 27.8% under setting [2].

On to “D28e (DAFKLPPMETEEP; C-terminal peptide cleaved from rHuPH20 aa 431-443; listed as Homo sapiens)”, for which the “Abundance of C-terminal fragment” value is, setting by setting: under setting [1], 13.6%; under setting [2], 6.9%.
